Patent US20230044037A1 (INTERVET, published 2023)
Where a chain is given by its changes, count along the chain named. No constants are given. Whether binding was seen depends on the method and setting. Some entries that bind do so weakly or less than the wild type.

B1: c152C1L1-H1 (antibody, V domains shown)
VH: EVQLVESGGDLVKPGGSLRLSCAASGFTFSSYGMSWVRQAPGKGLQWVATISRGGDYTYYPDSVKGRFTISRDNAKNTLYLQMNSLRAEDTAMYYCAKGTLNNRGFACWGQGTLVTVSS
VL: QSVLTQPASVSGSLGQRVTISCKASQNVGTNVAWYQQLPGTSPRTLIYSASYRYSGVPDRFSGSRSGSTATLTISGLQAEDEADYYCQQYNSYPYTFGGGTHLTVLG
B2: c152C1L1-H2 (antibody, V domains shown)
VH: B1 VH with G42D, G44R, K98R
VL: B1 VL
B3: c152C1L1-H3 (antibody, V domains shown)
VH: B1 VH with G42D, G44R, K98R, C108S
VL: B1 VL
B4: c152H11-H3L3 (c152H11VL3-cCLk-s/c152H11VH3-cIgG-Bm) (antibody, V domains shown)
VH: B1 VH with G42D, G44R, K98R, C108S
VL: EIVMTQSPASLSLSQEEKVTITCKASQNVGTNVAWYQQKPGQAPKLLIYSASYRYSGLPDRFSGSGSGTDFSFTISSLEPEDVAEFFCQQYNSYPYTFGQGTKLEIKR
notes: Caninized anti-canine IL-4R alpha antibody: VH3 heavy chain on modified canine IgG-B (IgG-Bm), kappa light chain L3

Target: T1, canine IL-4 receptor alpha (IL-4Rα), protein used in ELISA and in epitope mapping (canine)
T1 sequence: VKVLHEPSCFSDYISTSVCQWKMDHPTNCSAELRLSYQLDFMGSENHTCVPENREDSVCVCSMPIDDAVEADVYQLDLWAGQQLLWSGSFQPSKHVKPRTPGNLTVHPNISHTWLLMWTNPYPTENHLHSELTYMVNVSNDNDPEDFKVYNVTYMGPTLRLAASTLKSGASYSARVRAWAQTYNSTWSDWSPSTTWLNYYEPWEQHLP
Assay: ELISA

Question: Which binding does the source give for B1 here?
Answer: Its binding is “binds”.

Question: For B2, which binding is on record?
Answer: The binding was “binds”.

Question: How did the binding turn out when B3 was run?
Answer: The binding was “binds”.

Question: With B4 as the binder, how does the binding read?
Answer: The binding was “binds”.

Target: T1, canine IL-4 receptor alpha (IL-4Rα), protein used in ELISA and in epitope mapping (canine)
Assay: ELISA (FIG. 3)

Question: How did the binding turn out when B3 was run?
Answer: Its binding is “binds”.

Question: With B4 as the binder, how does the binding read?
Answer: The binding was “binds”.
